Laboratory results from paper PMC3092770.
No constants are given. Whether binding was seen depends on the method and setting. Binding seen in cells or lysates may run through a third protein. Some results given as binding are weak or reduced against the parent protein; the word gives no strength.

Sequences of proteins named here, by UniProt entry; tags and fusion partners are left off.
UniProt Q8TB72: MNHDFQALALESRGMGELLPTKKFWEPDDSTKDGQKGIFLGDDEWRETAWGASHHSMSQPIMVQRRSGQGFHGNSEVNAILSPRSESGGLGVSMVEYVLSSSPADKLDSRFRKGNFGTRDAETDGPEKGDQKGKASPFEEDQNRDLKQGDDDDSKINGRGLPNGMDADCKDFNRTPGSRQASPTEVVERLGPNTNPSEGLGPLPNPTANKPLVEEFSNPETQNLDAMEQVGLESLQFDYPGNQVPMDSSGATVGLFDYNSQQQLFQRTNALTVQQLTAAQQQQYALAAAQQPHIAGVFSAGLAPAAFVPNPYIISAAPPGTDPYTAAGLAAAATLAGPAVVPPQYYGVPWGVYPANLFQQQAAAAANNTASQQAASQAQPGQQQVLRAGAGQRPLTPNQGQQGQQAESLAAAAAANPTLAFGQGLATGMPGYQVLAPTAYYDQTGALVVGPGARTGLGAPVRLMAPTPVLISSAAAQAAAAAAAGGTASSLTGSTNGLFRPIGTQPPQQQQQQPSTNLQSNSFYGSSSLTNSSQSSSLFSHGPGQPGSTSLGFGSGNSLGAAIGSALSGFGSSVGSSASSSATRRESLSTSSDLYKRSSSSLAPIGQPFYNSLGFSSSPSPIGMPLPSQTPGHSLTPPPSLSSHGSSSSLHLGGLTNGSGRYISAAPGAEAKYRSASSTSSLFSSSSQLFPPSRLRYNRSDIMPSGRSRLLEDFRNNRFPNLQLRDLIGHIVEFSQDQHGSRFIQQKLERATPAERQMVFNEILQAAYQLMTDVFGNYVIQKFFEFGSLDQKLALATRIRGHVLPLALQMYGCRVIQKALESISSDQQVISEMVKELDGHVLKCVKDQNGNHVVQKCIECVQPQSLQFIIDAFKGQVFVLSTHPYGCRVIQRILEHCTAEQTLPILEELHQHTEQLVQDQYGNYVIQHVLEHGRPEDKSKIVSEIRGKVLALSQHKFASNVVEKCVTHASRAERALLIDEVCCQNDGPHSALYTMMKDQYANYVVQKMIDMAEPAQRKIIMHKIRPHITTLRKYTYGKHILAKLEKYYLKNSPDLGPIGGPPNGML

Target: endogenous PUM2 (human (endogenous in CL1–5)) (UniProt Q8TB72)
Assay: proximity ligation; in situ PLA (Duolink) in fixed CL1–5 cells with anti-PUM2 and anti-Aurora-A antibodies; single primary antibodies as negative controls

B1: endogenous Aurora-A (enzyme, UniProt O14965 1-403)
chain: MDRSKENCISGPVKATAPVGGPKRVLVTQQFPCQNPLPVNSGQAQRVLCPSNSSQRIPLQAQKLVSSHKPVQNQKQKQLQATSVPHPVSRPLNNTQKSKQPLPSAPENNPEEELASKQKNEESKKRQWALEDFEIGRPLGKGKFGNVYLAREKQSKFILALKVLFKAQLEKAGVEHQLRREVEIQSHLRHPNILRLYGYFHDATRVYLILEYAPLGTVYRELQKLSKFDEQRTATYITELANALSYCHSKRVIHRDIKPENLLLGSAGELKIADFGWSVHAPSSRRTTLCGTLDYLPPEMIEGRMHDEKVDLWSLGVLCYEFLVGKPPFEANTYQETYKRISRVEFTFPDFVTEGARDLISRLLKHNPSQRPMLREVLEHPWITANSSKPSNCQNKESASKQS
- binding: binds
